Drawing on paper PMC13486763, this text covers binding for three substances.

Amino acid sequences for entries named in this document (tags omitted).
UniProt O94762: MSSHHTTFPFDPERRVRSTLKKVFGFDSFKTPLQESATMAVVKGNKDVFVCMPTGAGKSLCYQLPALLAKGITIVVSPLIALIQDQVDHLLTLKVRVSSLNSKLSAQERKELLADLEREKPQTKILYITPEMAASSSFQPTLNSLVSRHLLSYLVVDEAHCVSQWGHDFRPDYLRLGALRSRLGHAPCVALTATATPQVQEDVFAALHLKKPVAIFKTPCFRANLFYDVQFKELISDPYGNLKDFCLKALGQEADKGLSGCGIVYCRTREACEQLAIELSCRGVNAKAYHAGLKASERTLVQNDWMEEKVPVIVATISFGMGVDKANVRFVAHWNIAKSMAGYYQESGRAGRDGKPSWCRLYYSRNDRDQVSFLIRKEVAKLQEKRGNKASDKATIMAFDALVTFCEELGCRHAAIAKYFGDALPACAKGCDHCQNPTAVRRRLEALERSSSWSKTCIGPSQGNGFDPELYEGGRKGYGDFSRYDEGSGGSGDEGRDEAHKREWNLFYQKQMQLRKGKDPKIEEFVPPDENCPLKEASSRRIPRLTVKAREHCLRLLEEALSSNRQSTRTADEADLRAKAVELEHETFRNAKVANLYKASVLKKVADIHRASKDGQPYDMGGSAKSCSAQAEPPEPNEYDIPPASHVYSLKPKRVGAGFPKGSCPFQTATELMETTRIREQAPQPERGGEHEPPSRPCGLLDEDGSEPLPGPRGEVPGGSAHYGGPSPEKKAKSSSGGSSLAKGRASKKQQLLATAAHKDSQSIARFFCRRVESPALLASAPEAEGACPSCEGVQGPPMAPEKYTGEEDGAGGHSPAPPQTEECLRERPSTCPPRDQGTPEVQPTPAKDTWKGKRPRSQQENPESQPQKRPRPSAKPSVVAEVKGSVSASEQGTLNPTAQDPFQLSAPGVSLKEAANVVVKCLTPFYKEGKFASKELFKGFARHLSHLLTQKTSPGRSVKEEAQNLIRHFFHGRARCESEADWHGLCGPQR

No constants are given. Whether binding was seen depends on the method and setting. In cells and extracts the contact can be indirect. A yes stands for co-enrichment or nearness to the bait. Other partners may have been found.

For the test, the target named is eGFP-AID-3C-Gdown1 (endogenously tagged Gdown1) (human (endogenous in K562)) (UniProt P0CAP2). Put plainly: affinity purification with mass spectrometry; GFPtrap (Chromotek) resin with cytoplasmic or nuclear extract of K562 cells with GFP-tagged Gdown1, wild-type extract as control; 2 h at 4 °C; 100 mM NaCl, 0.05% Triton X-100 wash; elution with 3C protease; label-free MS, triplicate.

With “GPN3 (endogenous) (from UniProt Q9UHW5 1-284)”, the binding result was “binds”. Take RECQL5 (from UniProt O94762 1-991): the binding result was “binds”. Under “RPAP2 (endogenous) (from UniProt Q8IXW5 1-612)” stands “binds”.
